No constants are given. Whether binding was seen depends on the method and setting. In cells and extracts the contact can be indirect. Some binding calls cover weakened binding; strength is not graded here. Tags and fused reporters may be left off the sequences shown.
Tests used:
[1] = target: Hip3-flag (S. pombe) (UniProt P87315); assay: co-IP; whole-cell extracts of S. pombe strains expressing Hip3-flag or Hip3-1-flag and HA-spAsf1; anti-FLAG M2 agarose, 2 hr at 4°C, Buffer B with 150 mM NaCl, washes with 200 mM NaCl; western blot with anti-HA (3F10)
[2] = target: T1, Hip3-1-flag (S. pombe) (UniProt P87315); assay: as above
T1 sequence: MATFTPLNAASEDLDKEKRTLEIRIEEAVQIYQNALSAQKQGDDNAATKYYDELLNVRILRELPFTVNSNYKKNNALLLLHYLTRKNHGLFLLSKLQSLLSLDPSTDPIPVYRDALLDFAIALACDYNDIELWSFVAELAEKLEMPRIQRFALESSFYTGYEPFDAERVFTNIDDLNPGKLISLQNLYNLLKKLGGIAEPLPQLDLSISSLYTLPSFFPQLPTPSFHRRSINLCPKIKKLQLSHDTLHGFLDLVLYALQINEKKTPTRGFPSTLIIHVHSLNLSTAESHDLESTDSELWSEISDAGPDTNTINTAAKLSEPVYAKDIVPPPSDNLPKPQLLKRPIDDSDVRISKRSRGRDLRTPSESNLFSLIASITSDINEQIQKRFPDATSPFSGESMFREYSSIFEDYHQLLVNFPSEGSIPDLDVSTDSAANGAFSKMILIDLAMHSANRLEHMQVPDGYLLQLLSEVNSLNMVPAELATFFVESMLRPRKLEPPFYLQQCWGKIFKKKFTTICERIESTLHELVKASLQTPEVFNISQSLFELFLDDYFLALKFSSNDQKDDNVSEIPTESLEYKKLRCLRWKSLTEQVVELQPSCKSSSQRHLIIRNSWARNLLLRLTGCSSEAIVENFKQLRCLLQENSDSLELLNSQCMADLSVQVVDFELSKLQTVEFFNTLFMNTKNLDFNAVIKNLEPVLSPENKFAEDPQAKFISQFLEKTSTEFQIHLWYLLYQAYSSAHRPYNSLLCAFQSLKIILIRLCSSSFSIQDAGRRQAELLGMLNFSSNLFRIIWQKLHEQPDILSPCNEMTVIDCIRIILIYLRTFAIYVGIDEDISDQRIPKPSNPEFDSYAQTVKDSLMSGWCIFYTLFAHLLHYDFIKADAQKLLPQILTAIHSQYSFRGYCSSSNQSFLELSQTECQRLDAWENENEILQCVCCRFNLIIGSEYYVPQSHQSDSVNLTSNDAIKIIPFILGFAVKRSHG

binding [1]: binds | binding [2]: binds
B1: HA-tagged spAsf1 (protein, UniProt O74515 1-262)
chain: MSIVNILSVNVLNNPAKFSDPYKFEITFECLEPLKSDLEWKLTYVGSATSQSYDQILDTLLVGPIPIGINKFVFEADPPNIDLLPQLSDVLGVTVILLSCAYEDNEFVRVGYYVNNEMEGLNLQEMDDAEIKKVKVDISKVWRSILAEKPRVTRFNIQWDNPDFDDAPPVQPDADEEEEEEEADEMEEEFDEEGEGDEEEEEEDDGDGDGEGDGDGEGENDGKGSEEEEEEEIDIEEEEEESALANASAAEEKPEEKPETSQ
